Screening data, single-dose tests

Sequences of proteins named here, by UniProt entry; tags and fusion partners are left off.
UniProt I6X8D2, whole entry: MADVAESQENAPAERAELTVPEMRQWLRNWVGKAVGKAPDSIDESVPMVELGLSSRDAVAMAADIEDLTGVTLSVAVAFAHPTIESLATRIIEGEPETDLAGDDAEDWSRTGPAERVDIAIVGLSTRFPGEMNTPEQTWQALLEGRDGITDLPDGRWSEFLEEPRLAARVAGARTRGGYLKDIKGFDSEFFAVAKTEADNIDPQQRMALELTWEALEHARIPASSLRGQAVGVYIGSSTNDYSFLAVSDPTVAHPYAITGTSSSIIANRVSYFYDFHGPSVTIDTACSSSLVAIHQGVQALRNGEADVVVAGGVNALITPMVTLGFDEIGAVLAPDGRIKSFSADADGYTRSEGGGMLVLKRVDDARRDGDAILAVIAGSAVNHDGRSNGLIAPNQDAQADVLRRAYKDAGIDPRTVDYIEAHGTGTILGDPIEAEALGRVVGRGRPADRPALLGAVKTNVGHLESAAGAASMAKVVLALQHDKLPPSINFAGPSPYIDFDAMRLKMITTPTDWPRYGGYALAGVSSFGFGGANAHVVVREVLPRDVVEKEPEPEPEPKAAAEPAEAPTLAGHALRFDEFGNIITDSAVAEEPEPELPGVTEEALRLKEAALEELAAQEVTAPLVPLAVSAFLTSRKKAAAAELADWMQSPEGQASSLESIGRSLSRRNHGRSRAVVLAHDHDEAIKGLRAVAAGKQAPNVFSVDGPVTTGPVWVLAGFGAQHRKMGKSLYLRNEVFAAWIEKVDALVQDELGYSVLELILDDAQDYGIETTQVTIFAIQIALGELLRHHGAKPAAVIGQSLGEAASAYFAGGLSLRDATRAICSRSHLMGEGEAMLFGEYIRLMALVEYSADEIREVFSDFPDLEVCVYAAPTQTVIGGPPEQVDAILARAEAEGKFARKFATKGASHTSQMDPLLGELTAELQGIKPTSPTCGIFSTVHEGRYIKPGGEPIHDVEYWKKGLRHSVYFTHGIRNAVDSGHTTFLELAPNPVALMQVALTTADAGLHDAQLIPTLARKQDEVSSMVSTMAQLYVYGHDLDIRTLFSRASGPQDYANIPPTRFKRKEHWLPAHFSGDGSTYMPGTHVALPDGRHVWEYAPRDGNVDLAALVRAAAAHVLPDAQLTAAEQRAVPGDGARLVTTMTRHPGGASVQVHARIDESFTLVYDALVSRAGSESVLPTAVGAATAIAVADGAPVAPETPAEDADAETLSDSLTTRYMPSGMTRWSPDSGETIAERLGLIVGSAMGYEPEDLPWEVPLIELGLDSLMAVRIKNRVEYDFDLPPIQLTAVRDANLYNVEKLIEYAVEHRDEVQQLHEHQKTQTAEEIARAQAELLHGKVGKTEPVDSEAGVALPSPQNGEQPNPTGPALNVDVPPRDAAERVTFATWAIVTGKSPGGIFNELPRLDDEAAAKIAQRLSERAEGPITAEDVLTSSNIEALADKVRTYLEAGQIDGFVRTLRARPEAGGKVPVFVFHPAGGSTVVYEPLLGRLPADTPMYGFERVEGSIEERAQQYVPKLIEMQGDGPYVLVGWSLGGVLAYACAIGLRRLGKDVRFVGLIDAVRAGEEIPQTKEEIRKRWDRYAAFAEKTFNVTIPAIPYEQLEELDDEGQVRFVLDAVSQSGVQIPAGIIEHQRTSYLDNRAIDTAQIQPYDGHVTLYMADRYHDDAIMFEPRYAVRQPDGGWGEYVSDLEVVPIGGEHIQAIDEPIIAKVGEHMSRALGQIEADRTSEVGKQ
UniProt P9WNZ1, whole entry: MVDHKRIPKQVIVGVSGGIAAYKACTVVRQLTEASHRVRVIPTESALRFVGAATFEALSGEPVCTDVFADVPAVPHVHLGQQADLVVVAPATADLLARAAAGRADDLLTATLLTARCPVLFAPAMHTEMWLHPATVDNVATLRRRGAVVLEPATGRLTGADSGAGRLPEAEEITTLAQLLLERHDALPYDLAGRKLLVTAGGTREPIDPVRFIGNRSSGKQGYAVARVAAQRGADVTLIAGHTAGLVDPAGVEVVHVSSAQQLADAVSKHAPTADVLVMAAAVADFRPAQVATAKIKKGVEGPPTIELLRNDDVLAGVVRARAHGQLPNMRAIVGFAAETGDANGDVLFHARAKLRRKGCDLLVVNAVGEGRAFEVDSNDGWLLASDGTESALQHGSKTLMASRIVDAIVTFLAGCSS
UniProt P9WPC5, whole entry: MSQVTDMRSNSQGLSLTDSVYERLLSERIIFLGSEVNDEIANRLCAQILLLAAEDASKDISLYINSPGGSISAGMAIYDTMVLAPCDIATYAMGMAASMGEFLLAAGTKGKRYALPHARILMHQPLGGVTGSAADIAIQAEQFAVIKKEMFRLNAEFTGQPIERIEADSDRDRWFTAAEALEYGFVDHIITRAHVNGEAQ
UniProt P9WPC3, whole entry partner: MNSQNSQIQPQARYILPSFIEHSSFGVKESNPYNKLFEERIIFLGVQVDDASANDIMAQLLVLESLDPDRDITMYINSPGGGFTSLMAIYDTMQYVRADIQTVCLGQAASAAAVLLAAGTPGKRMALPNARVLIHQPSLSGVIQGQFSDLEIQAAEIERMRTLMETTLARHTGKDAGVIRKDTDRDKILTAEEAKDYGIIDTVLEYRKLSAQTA
UniProt P9WFT3, whole entry: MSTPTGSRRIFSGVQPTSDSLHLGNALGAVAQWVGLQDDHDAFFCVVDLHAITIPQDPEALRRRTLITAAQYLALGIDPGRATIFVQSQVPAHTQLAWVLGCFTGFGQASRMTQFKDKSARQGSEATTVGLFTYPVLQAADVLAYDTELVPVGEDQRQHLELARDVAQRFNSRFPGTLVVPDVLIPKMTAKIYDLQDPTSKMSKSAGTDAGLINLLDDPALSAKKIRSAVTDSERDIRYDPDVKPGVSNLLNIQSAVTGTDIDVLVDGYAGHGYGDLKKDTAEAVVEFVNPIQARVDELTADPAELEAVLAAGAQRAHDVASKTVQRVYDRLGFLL

The values are deposited in ChEMBL (CHEMBL3988442, “University of Dundee, Small-Polar-MMV Screening Library” (2021)).

Pks13 thioesterase: 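Enzyme assay of the thioesterase domain of polyketide synthase 13; the read-out is not stated. Target: Polyketide synthase Pks13, Mycobacterium tuberculosis (UniProt I6X8D2). Concentration: 30 µM. The record gives no direction; the compounds picked for IC50 retests had high values, so higher reads as stronger inhibition. Of about 67,000 compounds tested this way, about 300 (0.46%) reached 50% or more in at least one test.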
Toxoplasma: 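Assay of Toxoplasma gondii numbers, read through their beta-galactosidase reporter with a colour substrate. Compounds at 10 µM. The record gives no direction; the compounds picked for IC50 retests had high values, so higher reads as fewer parasites. Of about 67,000 compounds tested this way, about 260 (0.38%) reached 50% or more in at least one test.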
CoaBC: 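Enzyme assay of CoaBC with a phosphate dye (Biomol Green) read at 650 nm. Target: Coenzyme A biosynthesis protein CoaBC, Mycobacterium tuberculosis (UniProt P9WNZ1). Concentration: 30 µM. Direction is inferred from only a few compounds that gave an IC50; most scored high, so higher reads as stronger inhibition. Most strong results did not repeat in a second test. Of about 67,000 compounds tested this way, about 40 (0.06%) reached 50% or more in at least one test.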
ClpP1P2: 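Protease assay of ClpP1P2, read by the AMC dye that it sets free. Target: ClpP1P2, Mycobacterium tuberculosis (UniProt P9WPC5 and UniProt P9WPC3). Compounds at 50 µM. Direction is inferred from only a few compounds that gave an IC50; most scored high, so higher reads as stronger inhibition. Most other retested compounds had strongly negative values. Size under these conditions: about 69,000 compounds, about 10 of them at 50% or above in at least one test.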
Leishmania in macrophages: 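Cell assay of Leishmania donovani living inside macrophages; the read-out is not stated. Tested at 30 µM. Higher reads as stronger inhibition (inferred: compounds with an IC50 in retests scored well above the rest). Size under these conditions: about 69,000 compounds, about 1,000 of them at 50% or above in at least one test.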
MtTrpRS: 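Tryptophan-tRNA ligase, Mycobacterium tuberculosis (UniProt P9WFT3). Enzyme assay of tryptophanyl-tRNA synthetase; the read-out is not stated. Concentration: 10 µM. Higher most likely means stronger inhibition; the record gives no direction and few retests gave an IC50. About 65,000 compounds were tested under these conditions; 0.098% (about 64) showed 50% or more at least once.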

The filed quantity is “Percent Effect” (%). The record does not define 0% and 100%; most values in the screen are far below 50% and negative numbers occur (in some assays of this library far below -100). This is an unselected part of the compounds tested. Two or more numbers in one place are separate tests of the same structure; such repeats can differ widely. A dash means the value is not listed here; it may have been measured.

structure	Pks13 thioesterase	Toxoplasma	CoaBC	ClpP1P2	Leishmania in macrophages	MtTrpRS
CNC(=O)c1ccc(OC2CCN(S(C)(=O)=O)CC2)c(Cl)c1	-3.936	11.4	-8.439	-4.628	21.3	1.137
O=C(NCCCn1ccnc1)c1csc2c1CCCC2	-26.21	-1.431	-6.818	-6.097	7.768	-2.341
CC(C)n1cc(C(=O)N2CCC(n3cc(C(C)(C)C)nn3)CC2)cn1	-10.03	4.673	3.226	-4.236	12.39	3.363
Cc1cc(C(=O)N(C)C)nc(C2(C)CCCN2c2ccnc(C)n2)n1 (configuration not stated)	-	-11.32	-7.359	-15.4	35.66	-6.082
Cc1noc(C)c1S(=O)(=O)N1CCC(Oc2cccnn2)CC1	-5.282	1.158	-1.48	-0.7713	-19.5 & 5.978	-2.812
COCC(=O)N1CCC(C(=O)N(C)CCCc2nccn2C)CC1	-4.551	-7.994	4.391	-19.96	24.12	-1.656
CCS(=O)(=O)CC(=O)NC1(c2ccc(Cl)c(Cl)c2)CC1	-22.15	1.154	-1.927	-0.6123	3.458	2.169
CC(C)N1CCCC(CN(C)c2ccc(Cn3ccnc3)cn2)C1 (configuration not stated)	-31.55	0.251	-15.42	-7.731	0	-8.411
CCOc1ccc(C(=O)Nc2ccn(CC)n2)cc1	-2.95	12.63	2.296	-8.031	8.722	-9.675
Cc1ccc(C(=O)NCCS(=O)(=O)Cc2ccccc2)c(=O)[nH]1	-14.34	-57.46	4.781	-13.51	1.972	-0.09551
CCCC(NC(=O)c1cncc(C)c1)c1nnn[nH]1 (configuration not stated)	0.2758	0.2326	-10.74	0.9595	8.013	-0.5069
CN(Cc1n[nH]c2c1CCC2)C(=O)c1cccc(CCC(C)(C)O)c1	-28.15	2.703	4.113	-1.706	57.38	-2.344
N[C@H]1CN(S(=O)(=O)Cc2ccccc2)C[C@@H]1C1CC1	-7.204	-12.75	11.73	3.048	21.84	5.273
Cc1cc(NC(=O)CCc2ccsc2)n(C)n1	-8.118	-0.4071	3.797	3.804	30.06	-7.773
COCC(=O)N1CCC2(CCc3ccc(F)cc32)CC1.Cl	-	-1.543	-	-	13.17	-
Cc1cccc(CN2CCC3(CC2)CN(c2cccnc2)C(=O)CO3)n1.O=C(O)C(F)(F)F.O=C(O)C(F)(F)F	-	-3.699	-	-	13.25	-
O=C(C1CC1)N1C[C@@H](F)[C@@H](OCc2nc3ccccc3o2)C1	7.648	-2.502	0.2208	-10.16	5.248	0.6829
Cc1cc(NC(=O)Cc2ccccc2O)cnc1N1CCCCC1	-3.716	15.12	11.9	-2.364	-9.059	1.638
O=C(c1ccco1)N1CC(S(=O)(=O)c2ccc(Cl)cc2)C1	3.387	-5.981	0.9685	-15.22	-4.801	2.973
O=C(CCNC(=O)c1ccccc1F)NCCNc1cccnc1	-0.762	-5.454	3.388	-1.677	2.097	3.076
CO[C@H]1CCN(Cc2ccoc2)C[C@@H]1Cc1ccccc1	-41.27	-	-0.8485	-11.14	-	-
CN(C)CC(=O)N1CC2(CCN(C(=O)Nc3ccccc3)C2)C1	-29.33	-	3.475	14.66	-	-0.2907
CCc1cc2c(N3CCCC(c4ccn[nH]4)C3)ncnc2s1 (configuration not stated)	-26.55	3.496	-9.221	-1.068	28.44	6.137
CCOc1ccc2ccccc2c1CNCC1CCS(=O)(=O)C1 (configuration not stated)	-10.27	-	-6.21	-1.061	-	-4.669
Cc1ccc(CNC[C@H]2Cn3cc(-c4ccccc4)nc3CO2)cc1	-51.44	3.895	-6.843	-5.728	10.99	-2.959
O=C(NC[C@H]1OC[C@@H](NC2CCC(F)(F)CC2)[C@@H]1O)c1ccccc1	17.64	-8.228	5.077	-7.332	-29.78	-0.2276
Cc1ccc2c(ccn2CCC(=O)O)c1	9.014	2.286	-10.57	-11.05	14.58	0.6706
O=C1CCCN1Cc1nnn2c1CN(c1ncccn1)CCC2	-24.78	-0.9043	-	-0.000280	10.62	0.4845
CN(C)CCn1c(=O)n(C)c(=O)c2ccccc21	-0.3207	-	-0.6075	17.95	-	0
CCc1ccc(C(COC)NC(=O)c2ccc(O)nc2)o1 (configuration not stated)	-13.12	-3.633	1.709	-5.567	-7.414	-4.354
O=C(O)C(F)(F)F.O=C(O)C(F)(F)F.c1ccc(N2CC[C@H](OCC3CC3)[C@@H]2Cc2cccnc2)nc1	-	3.128	-	-	33.87	-
Cc1cccc(C(=O)N2CCCC(Cc3cncc4ccccc34)C2)n1 (configuration not stated)	2.2	4.471	-0.618	4.514	5.224	-8.314
Cc1ncccc1C(=O)NCC(C)Oc1ccc(F)cc1 (configuration not stated)	2.216	14.63	3.33	-6.825	-69.23	2.007
Cc1ccc(CN2CCN(C3CCCC3)CC2CCO)o1 (configuration not stated)	-2.05	-7.368	20.87 & 8.466	-15.48	17.27	3.451
[H][C@@]12C[C@@H](C)O[C@]1([H])CN(C(=O)c1ccccc1C)C2	-	-6.755	-	-	24.01	-
CCSCCNC(=O)c1ccc(S(=O)(=O)N2C[C@@H]3C[C@H]2CN3)cc1	-18.52	-	-15.16	9.915	-	2.252
Cc1ccc(S(=O)(=O)NC(=O)CCOCc2ccccc2)s1	-4.279	-7.324	5.882	0.8838	15.25	-6.861
CN(c1ccncn1)C1CC2(CCN(C(=O)c3cccs3)C2)C1 (configuration not stated)	14.07	26.59	-2.222	-2.001	1.631	-4.599
COc1ccc(CN2C[C@@H]3OCCN(C)[C@@H]3C2)cc1	-12.28	-	3.043	8.466	-	2.215
CN1C(=O)CCC12CCCN(Cc1nccs1)C2 (configuration not stated)	-4.238	-	4.326	4.45	-	8.567
Cc1ccc(C(=O)NCC(C)Cn2ccnc2C)c(=O)[nH]1 (configuration not stated)	-23.54	-10.24	7.631	-7.999	16.37	-0.8189
CCc1nc(CN2CCCN(c3nn4cc(C)nc4s3)CC2)no1	-22.31	-50.9	4.962	9.325	21.95	14.19
COc1cc(C(=O)N2CCCC2CC(=O)c2cnn(C)c2)ccc1F (configuration not stated)	10.8	5.712	0.3659	4.215	5.479	-0.5298
CCOc1ccc(C#N)cc1NCC(=O)NC1(C#N)CCCC1	3.12	-16.25	14.91	-8.966	10.4	-4.172
Cc1cc2ccncc2n1CC1(O)CCN(C(=O)c2cccnc2)CC1	6.984	5.379	-2.67	-17.76	10.77	-5.567
Cn1cc(C2=CCN(CCC(=O)NCc3ccc(Cl)cc3)CC2)cn1	-19.99	-39.38	2.138	-21.55	7.329	0.1361
c1ccc(O[C@H]2CO[C@@]3(CCN(Cc4ccc5c(c4)OCO5)C3)C2)nc1	-	-	4.821	-7.323	-	0.07582
Cc1nn(C)c(C)c1CCC(=O)N1CCN(CCn2cncn2)CC1	-11.35	22.01	3.353	2.346	3.311	8.218
CCN1CC(C(=O)N2CCC(Oc3ccccc3Cl)CC2)CC1=O (configuration not stated)	0.0277	17.65	-8.817	6.733	-4.191	-2.549
Cc1ccn(CC(=O)NCCCOc2ccccc2F)c(=O)c1	-2.32	-4.864	1.456	-8.325	-8.127	1.008
CC(CC(=O)c1ccco1)NC(=O)c1ccccn1 (configuration not stated)	-10.95	-5.464	1.635	-9.536	12.39	0
COc1cccc(C(=O)N2CCN(C(=O)CCCc3cn[nH]c3)CC2)c1	-23.79	2.282	-0.1229	-14.02	33.21	-3.202
CC(C)Nc1cc(N2CCCC3(CN(C)C(=O)O3)C2)ncn1 (configuration not stated)	8.091	-1.701	3.6	-10.21	-5.467	22.09
CC1=C[C@@H](CN2CCOCC2)[C@H](C(C)C)C[C@H]1Cc1nnc(C)o1	-27.94	1.066	16.31	-8.945	18.82	-2.365
O=C(c1cccnc1N1CCOCC1)N1CCCC1Cn1cccn1 (configuration not stated)	-16.25	-3.721	0.2564	-0.9223	24.91	3.362
OC(COCc1ccco1)CN1CCc2c(ncn2C2CC2)C1 (configuration not stated)	-14.94	5.428	-1.044	-22.23	8.873	-3.516
CC1c2ncc(COCc3ccccn3)n2CCN1C1CCCC1.O=C(O)C(F)(F)F.O=C(O)C(F)(F)F (configuration not stated)	-	4.31	-	-	22.49	-
Cn1nnnc1SCc1cc2c(cc1Cl)OCO2	-9.866	-	-2.552	-10.37	-32.99	0.6431

Some entries from above, unchanged:

structure	Pks13 thioesterase	Toxoplasma	CoaBC	ClpP1P2	Leishmania in macrophages	MtTrpRS
Cc1ncccc1C(=O)NCC(C)Oc1ccc(F)cc1 (configuration not stated)	2.216	14.63	3.33	-6.825	-69.23	2.007
CN(C)CCn1c(=O)n(C)c(=O)c2ccccc21	-0.3207	-	-0.6075	17.95	-	0
COc1cccc(C(=O)N2CCN(C(=O)CCCc3cn[nH]c3)CC2)c1	-23.79	2.282	-0.1229	-14.02	33.21	-3.202
Cc1cc(C(=O)N(C)C)nc(C2(C)CCCN2c2ccnc(C)n2)n1 (configuration not stated)	-	-11.32	-7.359	-15.4	35.66	-6.082
[H][C@@]12C[C@@H](C)O[C@]1([H])CN(C(=O)c1ccccc1C)C2	-	-6.755	-	-	24.01	-